Screen size: about 320,000 compounds; about 2,100 (0.66%) were called active. This list was built around the results that the source calls inconclusive (neither active nor inactive); the mix of calls is not that of the screen. Calls come from the whole dose curve; as a rule, active = well fitted inhibition curve with a large enough effect in the signal ratio, with a control signal flat (not every such curve was filed as active); inconclusive = small, poorly fitted or top-dose-only effect, or effect the other way, or a change in a side signal; inactive = flat fitted curve, though single readings scatter; the % refers to the signal ratio. Potencies of inconclusive entries are doubtful fits and often do not repeat.
assay: qHTS Assay for Lipid Storage Modulators in Drosophila S3 Cells; conditions: BODIPY lipid droplet fluorescence, 18-24 h, cells fed with added oleic acid; lipid storage change, negative = inhibition: at 46.1 µM (top of the series) unless noted
Summary of the method: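 Laser-scanning cytometry quantifies lipid droplet accumulation (500–530 nm total intensity; droplet/cell object ratio) in oleic acid-fed (400 uM added) Drosophila S3 cells treated with a concentration series. 20 uM Triacsin C defined 100% inhibition.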
% is set by controls: 0 for no effect and ±100 for the full control effect; potency is the fitted concentration of half-maximal effect.

Compound	Potency	lipid storage change, negative = inhibition
Cc1ccc(CC2CC(=O)N(Cc3ccco3)C2=O)cc1 (centres undefined)	inconclusive: 25.9 µM [activator, single point]	–
Cc1ccc(NC(=O)Nc2cccnc2)cc1NC(=O)Nc1cccnc1	–	inconclusive: -10.3%
CC(C)C(OC(=O)c1nsc(Cl)c1Cl)C(=O)NC(C)(C)C (centres undefined)	–	inconclusive: 1.49%
Clc1ccc(CNc2cnccn2)cc1	–	inconclusive: 9%
O=C(CN1CCc2ccccc2C1)NC1CCCC1	inconclusive: 0.651 µM [rising, single point]	–
COC(C(=O)NNC(=O)CCc1ccccc1)c1ccccc1 (centres undefined)	–	inconclusive: 12.7%
O=C(NCCNC(=O)c1ccccn1)c1ccc(Cl)cc1	inconclusive: 1.16 µM [activator, single point]	–
Cc1cccc(-c2nnc(-c3ccccc3)o2)c1	inconclusive: 1.3 µM [activator, full curve]	–
CNc1nc(N)nc(-c2cc(Cl)ccc2OC)n1	–	inactive
CCC1CN(C(=O)N2CCC(C(=O)NCCc3ccc(OC)cc3OC)CC2)c2ccccc2O1 (centres undefined)	active: 5.17 µM	–
CC1(C)Cc2c(sc3c2C(=O)N(c2ccccc2)C2=NCCCN23)CO1	–	inconclusive: 0.669%
CC1=C(C)C(=O)C(CCCCC#CCCCC#CCO)=C(C)C1=O	inconclusive: 8.2 µM [activator, partial curve]	–
Cc1ccc(-c2c[n+](Cc3cccc(Cl)c3)c3n2CCC3)cc1	–	inconclusive: 21.1%
O=C1NC(=Nc2ccccc2)S/C1=C\c1ccccc1	inconclusive: 11.6 µM [falling, single point]	–
Cc1cc(C(=O)NCC2CCCCC2)ccc1[N+](=O)[O-]	inconclusive: 6.51 µM [falling, partial curve, poor fit]	–
Cc1ccccc1NP(=O)(c1ccccc1)c1nc2ccccc2s1 (centres undefined)	–	inconclusive: 7.67%
CCc1ccc(CN(C)C(=O)C2=CC=CN3CCS(=O)(=O)N=C23)cc1	–	inconclusive
CC(C)C(=O)Nc1c2c(nn1-c1ccccc1)CSC2	inconclusive: 29.1 µM [activator, single point]	–
CCC(=O)N(CCc1ccccc1)Cc1cc2cc3c(cc2[nH]c1=O)OCO3	–	inconclusive: -8.51%
OC1(C#CCN2CCCC2)CCCCC1	inconclusive: 29.1 µM [activator, single point]	–
O=S(=O)(c1ccccc1)N1CCN(c2ncnc3sc(-c4ccccc4)cc23)CC1	–	inconclusive: 68.9%
COc1ccc2oc(=O)c(C(=O)O)cc2c1	–	inconclusive: 14.9%
Cc1sc(NC(=O)Cn2c(=O)oc3ccccc32)nc1-c1ccc(Cl)cc1	–	inconclusive: -21.6%
NC(=O)CSc1nc2c(c(=O)n1-c1ccccc1)C1(CCCCC1)Cc1ccccc1-2	–	inconclusive: 11.9%
CCOC(=O)N/N=C/c1ccc(N(CC)CC)cc1O	–	inconclusive: -1.66%
COc1ccc(NC(=O)CN2C(=O)NC(C)(C3CC3)C2=O)cc1S(=O)(=O)N1CCOCC1 (centres undefined)	–	inconclusive: -37.7%
CCOc1ccc(C(=O)NC(C(=O)NCCc2ccc(OC(F)F)cc2)C(C)C)cc1 (centres undefined)	–	inconclusive: 95.5%

A draw from above in order of molecular weight, largest number first.
Compound	Potency	lipid storage change, negative = inhibition
CCC1CN(C(=O)N2CCC(C(=O)NCCc3ccc(OC)cc3OC)CC2)c2ccccc2O1 (centres undefined)	active: 5.17 µM	–
COc1ccc(NC(=O)CN2C(=O)NC(C)(C3CC3)C2=O)cc1S(=O)(=O)N1CCOCC1 (centres undefined)	–	inconclusive: -37.7%
O=S(=O)(c1ccccc1)N1CCN(c2ncnc3sc(-c4ccccc4)cc23)CC1	–	inconclusive: 68.9%
CCOc1ccc(C(=O)NC(C(=O)NCCc2ccc(OC(F)F)cc2)C(C)C)cc1 (centres undefined)	–	inconclusive: 95.5%
NC(=O)CSc1nc2c(c(=O)n1-c1ccccc1)C1(CCCCC1)Cc1ccccc1-2	–	inconclusive: 11.9%
Cc1sc(NC(=O)Cn2c(=O)oc3ccccc32)nc1-c1ccc(Cl)cc1	–	inconclusive: -21.6%
CCC(=O)N(CCc1ccccc1)Cc1cc2cc3c(cc2[nH]c1=O)OCO3	–	inconclusive: -8.51%
CC1(C)Cc2c(sc3c2C(=O)N(c2ccccc2)C2=NCCCN23)CO1	–	inconclusive: 0.669%
Cc1ccccc1NP(=O)(c1ccccc1)c1nc2ccccc2s1 (centres undefined)	–	inconclusive: 7.67%
Cc1ccc(NC(=O)Nc2cccnc2)cc1NC(=O)Nc1cccnc1	–	inconclusive: -10.3%
CCc1ccc(CN(C)C(=O)C2=CC=CN3CCS(=O)(=O)N=C23)cc1	–	inconclusive
CC(C)C(OC(=O)c1nsc(Cl)c1Cl)C(=O)NC(C)(C)C (centres undefined)	–	inconclusive: 1.49%
CC1=C(C)C(=O)C(CCCCC#CCCCC#CCO)=C(C)C1=O	inconclusive: 8.2 µM [activator, partial curve]	–
Cc1ccc(-c2c[n+](Cc3cccc(Cl)c3)c3n2CCC3)cc1	–	inconclusive: 21.1%
COC(C(=O)NNC(=O)CCc1ccccc1)c1ccccc1 (centres undefined)	–	inconclusive: 12.7%
O=C(NCCNC(=O)c1ccccn1)c1ccc(Cl)cc1	inconclusive: 1.16 µM [activator, single point]	–
CC(C)C(=O)Nc1c2c(nn1-c1ccccc1)CSC2	inconclusive: 29.1 µM [activator, single point]	–
Cc1ccc(CC2CC(=O)N(Cc3ccco3)C2=O)cc1 (centres undefined)	inconclusive: 25.9 µM [activator, single point]	–
O=C1NC(=Nc2ccccc2)S/C1=C\c1ccccc1	inconclusive: 11.6 µM [falling, single point]	–
CCOC(=O)N/N=C/c1ccc(N(CC)CC)cc1O	–	inconclusive: -1.66%
Cc1cc(C(=O)NCC2CCCCC2)ccc1[N+](=O)[O-]	inconclusive: 6.51 µM [falling, partial curve, poor fit]	–
CNc1nc(N)nc(-c2cc(Cl)ccc2OC)n1	–	inactive
O=C(CN1CCc2ccccc2C1)NC1CCCC1	inconclusive: 0.651 µM [rising, single point]	–
Cc1cccc(-c2nnc(-c3ccccc3)o2)c1	inconclusive: 1.3 µM [activator, full curve]	–
COc1ccc2oc(=O)c(C(=O)O)cc2c1	–	inconclusive: 14.9%

Next part.

Compound	Potency	lipid storage change, negative = inhibition
COc1c2ccoc2c(OC[C@@H](O)C(C)(C)OC)c2oc(=O)ccc12	–	inconclusive: 2.85%
COc1ccc(N(CN2C(=O)c3ccccc3C2=O)C(=O)COc2ccc(Cl)cc2Cl)cc1	–	inconclusive: 23.1%
O=C(c1ccco1)N(Cc1ccc(Cl)cc1)Cc1ccco1	inconclusive: 4.11 µM [activator, full curve]	–
CCOc1ccc2oc(C(=O)NCC(c3ccco3)N(C)C)c(C)c2c1 (centres undefined)	inconclusive: 1.84 µM [falling, partial curve]	–
O=C(COC(=O)c1cn(-c2ccccc2)nc1-c1ccccc1)Nc1ncc(Cl)cc1Cl	–	inconclusive: 18.8%
Cc1c(NC(=O)c2ccccc2F)c(=O)n(-c2ccccc2)n1C	–	inconclusive: 3.4%
Cc1ccc(-n2c(SCC(=O)N/N=C/c3ccccc3OCC(=O)O)nc3ccccc3c2=O)cc1	inconclusive: 29.1 µM [falling, single point]	–
Cc1ccc(N(Cc2ccccc2)C(=O)c2ccc(C)c(S(=O)(=O)N3CCOCC3)c2)cc1	–	inconclusive: -27.9%
O=C(NCc1ccc2c(c1)OCO2)C1Cc2ccccc2CN1C(=O)c1ccco1 (centres undefined)	–	inconclusive: -13.6%
Cc1cc(C)n(-c2ccc(C(=O)OCC(=O)NCc3ccc(F)cc3)cc2)n1	–	inconclusive: 25.2%
COCCCNC(=O)c1cc(-c2cccnc2)nc2ccccc12	–	inconclusive: 20.4%
CC12CCC(C(=O)N(CC(O)CN3CCN(Cc4ccccc4)CC3)C1=O)C2(C)C (centres undefined)	–	inconclusive: -21.2%
CN1CCN(C(=O)Cn2c(C(F)(F)F)nc3ccccc32)CC1	inconclusive: 29.1 µM [falling, single point]	–
COc1ccc(N(C(=O)c2ccn[nH]2)C(C(=O)NC2CCCC2)c2ccc(F)cc2)cc1 (centres undefined)	inconclusive: 29.1 µM [activator, single point]	–
Cc1cc(N2CCN(c3ccccn3)CC2)n2c(nc3ccccc32)c1C#N	inconclusive: 6.51 µM [activator, single point]	–
Cc1ccc(C)c(OCc2ccc(C(=O)Nc3ccc([N+](=O)[O-])cn3)o2)c1	–	inconclusive: 13.2%
NC(=O)c1cc2cc(Cl)ccc2o/c1=N/NC(=O)c1cccs1	–	inconclusive: 1.01%
CC(C)c1ccc(NC(=O)c2ccc(NS(C)(=O)=O)cc2)cc1	–	inconclusive: -6.57%
CC(OC(=O)c1ccccc1O)C(=O)Nc1ccc(Cl)cn1 (centres undefined)	–	inconclusive: -14.8% [at 9.22 µM]
CCC(CO)NC(=O)c1ccc(-c2nn(C)c(=O)c3ccccc23)cc1 (centres undefined)	–	inconclusive: 1.41%
COc1ccc(OCc2cn3c(C)cc(C)nc3n2)cc1	–	inconclusive: 5.93%
O=C(CSc1nnc(-c2c[nH]c3ccccc23)o1)N1CCCCC1	–	inconclusive: 22.8%
CCCCn1c(N)c(N(CC(C)C)C(=O)CCCSc2nncs2)c(=O)[nH]c1=O	–	inconclusive: -23.9%
CC1CCc2nn(CC(=O)Nc3c(F)cc(F)cc3Br)cc2C1 (centres undefined)	–	inconclusive: 8.71%
O=C1c2ccccc2C(=O)c2c1cccc2-n1nnc2ccccc21	–	inconclusive: 6.99%
CCCn1c(=O)c(F)cn(Cc2ccc(OC)c([N+](=O)[O-])c2)c1=O	–	inconclusive: 38.5%
COc1ccc(C(=O)C2CCCN(C(=O)Cn3nc(C)cc3C)C2)cc1F (centres undefined)	–	inconclusive: 13.3%

Compound	Potency	lipid storage change, negative = inhibition
CC1CSc2nnc(CCc3ccccc3)n21 (centres undefined)	inconclusive: 29.1 µM [falling, single point]	–
COc1ccc(NC(=O)CC2C(=O)N(c3cccc(OC)c3)C(=O)N2C2CCCCC2)cc1 (centres undefined)	–	inconclusive: -29.3%
Cn1c(-c2ccc(F)cc2)cnc1SCC(=O)N1CCCCC1	–	inconclusive: 15.8%
CCOc1ccc(NC(=S)NNC(=O)CC(C)O)cc1 (centres undefined)	–	inconclusive: -40.1%
O=C(Nc1cnn(Cc2ccc(F)cc2)c1)c1cc2nc(-c3ccco3)cc(C(F)(F)F)n2n1	inconclusive: 0.517 µM [falling, full curve]	–
COC(=O)c1ccc(NC(=O)c2ccccc2-c2ccccc2C(=O)O)cc1	–	inconclusive: 17.9%
Cc1ccc(-c2csc(NC(=O)c3ccc(F)cc3)c2C(=O)O)cc1	inconclusive: 1.64 µM [activator, partial curve]	–
CCNS(=O)(=O)c1ccc(CCC(=O)NCc2cccnc2)cc1	inconclusive: 6.51 µM [falling, single point]	–
O=C(CCN1C(=O)/C(=C/c2ccccc2Cl)SC1=S)N1CCCC1	–	inconclusive: -100%
Clc1ccccc1Cn1nnc(-c2cccs2)n1	–	inconclusive: 17.2%
CCOC(=O)c1[nH]c(C)c(CC(C)C)c1C	–	inconclusive: -0.369%
Cc1occc1C(=O)Nc1cccc(Cn2cccn2)c1	inconclusive: 18.4 µM [activator, single point]	–
Cc1ccc(-n2c(CCC(=O)O)ccc2-c2cccs2)cc1	–	inconclusive: 63.2%
COc1ccc(-c2nc(-c3cccc(C)c3)[nH]c(=O)c2C#N)cc1	–	inconclusive: -14.7%
CCOc1ccc(-c2nnn(CC(=O)NCc3ccc4c(c3)OCO4)n2)cc1	–	inconclusive: 13.7%
COc1ccc(C(=O)Nc2ccc3c(c2)OCO3)cc1OC	inconclusive: 29.1 µM [activator, single point]	–
Cc1ccc(N2C(=O)C3CCC(C)(C2=O)C3(C)C)cc1 (centres undefined)	–	inconclusive: 15.3%
COc1ccc(C(=O)NCCc2ccc(F)cc2)cc1OC	–	inconclusive: 18.7%
CCCCc1nnc(NC(=O)CCc2ccccc2)s1	–	inconclusive: 117%
Cc1c(NC(=O)C(C)Sc2nc3ccccc3c(=O)n2CCO)c(=O)n(-c2ccccc2)n1C (centres undefined)	–	inconclusive: 36.6%
CN(C)CCCN(C(=O)/C=C/c1cccs1)c1nc2c(F)cccc2s1	inconclusive: 0.0052 µM [falling, full curve, poor fit]	–
CCC(NC(=O)COC(=O)C1CC2CCCC(C1)C2=O)c1ccc(Br)cc1 (centres undefined)	–	inconclusive
CCOC(=O)c1cnn(-c2ccccc2)c1-n1cccc1C(=O)C(=O)Nc1ccccc1C(F)(F)F	–	inconclusive: -69.3%
CC(=O)N1C=Cc2c(c(C)c3c([nH]c4ccccc43)c2C)C1	–	inconclusive: -45.5%
CCn1c(CNC(=O)C2CCCCC2)cc2cc(C)ccc21	inconclusive: 25.9 µM [activator, partial curve]	–

Source: PubChem BioAssay AID2685 (National Center for Advancing Translational Sciences (NCATS), 2010)
